# Results taken from PubChem BioAssay AID434945 (Broad Institute, 2010).
# Some of the results follow. Entries with a potency or affinity are not part of this list. The source made no clear call on entries shown without one.
# Assay: Yeast calcium-stress reporter cell assay for calcineurin blockers, concentration series, confirmatory (AID 434945)
# Details: S. cerevisiae CDRE-lacZ reporter, CaCl2, luminescence; at 28.5 µM (top of the series)
row,SMILES,"activity change, negative = inhibition [%]"
1,CCCC(=O)NC(c1ccccc1)c1ccc2cccnc2c1O (centres undefined),119
2,O=C(Nc1nnc(CCc2ccccc2)s1)c1ccco1,52.2
3,CCOC(=O)c1c(-c2ccccc2Cl)cn2ccccc12,42.3
4,Cc1ccc(C(=O)Nc2cccc(-c3cn4ccccc4n3)c2)cc1,62.3
5,Clc1ccc2c(c1)C(c1cccs1)=NNC(c1cccnc1)=N2,45.8
6,c1ccc2c(c1)OCC(CNc1ncnc3sccc13)O2 (centres undefined),29.5
7,O=C(Nc1nnc(-c2ccco2)o1)c1ccc(Cl)cc1,79.4
8,COc1cc2c(cc1NC(=O)c1ccco1)CCCC2,35.6
9,CC(C)N1CCc2c(sc(NC(=O)c3nc4ccccc4s3)c2C(N)=O)C1,43.2
